Source: patent US10597378B2 (priority 2017, dated 2020)

Test system: wild-type C57BL/6 (B6) mice
Test: Tail flick test (acute thermal pain)
Assay type: in vivo, mouse
Conditions: single dose subcutaneous injection, 30-120 min

## CN1CC[C@]23c4c5ccc(O)c4O[C@H]2[C@@H](O)C=C[C@H]3[C@H]1C5.Cl [morphine, Morphine hydrochloride, reference compound]
  antinociception (% of MPE, AUC): induced antinociception at doses of 2.4-7.2 mg/kg
